{"source": "patent US12544360B2", "about": "“Pharmaceutical composition for preventing or treating coronavirus disease-19” (priority 2020, dated 2026)", "test_system": "SARS-CoV-2", "type": "cell-based", "conditions": "human lung cells (Calu-3)", "note": "At least one structure is not confirmed: it was looked up by name or label, or the drawing left a doubt."}
{"smiles": "Cn1cncc1[C@@](N)(c1ccc(Cl)cc1)c1ccc2c(c1)c(-c1cccc(Cl)c1)cc(=O)n2C", "note": "[Tipifarnib]", "values": [{"measurement": "antiviral activity", "result": "exhibited antiviral activity"}]}
